Values from PubChem BioAssay AID1259425 (University of Nebraska Medical Center, 2018).
Test: 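Seek colon cancer weak points whose silencing resembles KSR1 loss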 (primary screen). Cell system: HCT116 human colon cancer cells. Reagent: siRNA pool against human genes, 50 nM siRNA. Measurement: 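After 50 nM siRNA pool, branched-DNA assay measures six marker transcripts per well, minus blank, normalised to the geometric mean of two housekeeping transcripts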. Scale: BNIP3L mRNA: higher = more BNIP3L transcript after knockdown; NDRG1 mRNA: higher = more NDRG1 transcript after knockdown; BNIP3 mRNA: higher = more BNIP3 transcript after knockdown; ALDOC mRNA: higher = more ALDOC transcript after knockdown; ACSL5 mRNA: higher = more ACSL5 transcript after knockdown.
In all, the deposit lists about 14,000 reagents; shown is an unselected part. Reagents against one gene are numbered here. Not given: the time to read-out.

| gene | pool no. | BNIP3L mRNA, set 1 | NDRG1 mRNA, set 1 | BNIP3 mRNA, set 1 | ALDOC mRNA, set 1 | ACSL5 mRNA, set 1 |
| --- | --- | --- | --- | --- | --- | --- |
| XPO6 (exportin 6) | 1 | 0.0997 | 0.263 | 0.258 | 0.03 | 0.183 |
| INF2 (inverted formin 2) | 1 | 0.0435 | 0.263 | 0.282 | 0.00952 | 0.345 |
| INF2 (inverted formin 2) | 2 | 0.129 | 0.131 | 0.21 | 0.0275 | 0.201 |
| RANBP17 (RAN binding protein 17) | 1 | 0.0564 | 0.328 | 0.33 | 0.0175 | 0.0788 |
| RGS20 (regulator of G protein signaling 20) | 1 | 0.0832 | 0.135 | 0.294 | 0.0165 | 0.133 |
| NEBL (nebulette) | 1 | 0.0952 | 0.166 | 0.266 | 0.0185 | 0.0769 |
| LPAR6 (lysophosphatidic acid receptor 6) | 1 | 0.266 | 0.56 | 0.772 | 0.0904 | 0.322 |
| IRS1 (insulin receptor substrate 1) | 1 | 0.125 | 0.0852 | 0.288 | 0.0183 | 0.359 |
| KCNIP2 (potassium voltage-gated channel interacting protein 2) | 1 | 0.0799 | 0.285 | 0.118 | 0.024 | 0.192 |
| KRT13 (keratin 13) | 1 | 0.19 | 0.276 | 0.388 | 0.0457 | 0.219 |
| TOR1A (torsin family 1 member A) | 1 | 0.114 | 0.124 | 0.282 | 0.0293 | 0.164 |
| TXNRD3 (thioredoxin reductase 3) | 1 | 0.091 | 0.0758 | 0.26 | 0.00885 | 0.111 |
| DEGS1 (delta 4-desaturase, sphingolipid 1) | 1 | 0.0583 | 0.378 | 0.282 | 0.00115 | 0.21 |
| CKAP4 (cytoskeleton associated protein 4) | 1 | 0.154 | 0.632 | 0.233 | 0.0641 | 0.0662 |
| CPA5 (carboxypeptidase A5) | 1 | 0.0679 | 0.0584 | 0.328 | 0.0171 | 0.107 |
| TRIM33 (tripartite motif containing 33) | 1 | 0.0621 | 0.0548 | 0.27 | 0.0237 | 0.0795 |
| EIF2D (eukaryotic translation initiation factor 2D) | 1 | 0.137 | 0.0965 | 0.252 | 0.0451 | 0.147 |
| MAPK4 (mitogen-activated protein kinase 4) | 1 | 0.0643 | 0.236 | 0.221 | 0.0247 | 0.315 |
| PIP5K1B (phosphatidylinositol-4-phosphate 5-kinase type 1 beta) | 1 | 0.0891 | 0.15 | 0.294 | 0.0372 | 0.164 |
| TFAP2C (transcription factor AP-2 gamma) | 1 | 0.0717 | 0.118 | 0.293 | -0.0012 | 0.146 |
| ENPEP (glutamyl aminopeptidase) | 1 | 0.098 | 0.516 | 0.285 | 0.0151 | 0.186 |
| NRBP1 (nuclear receptor binding protein 1) | 1 | 0.0976 | 0.0937 | 0.313 | 0.00778 | 0.232 |
| TIRAP (TIR domain containing adaptor protein) | 1 | 0.0524 | 0.167 | 0.303 | 0.0142 | 0.136 |
| TRAF5 (TNF receptor associated factor 5) | 1 | 0.119 | 0.122 | 0.29 | 0.0291 | 0.102 |
| SCAF11 (SR-related CTD associated factor 11) | 1 | 0.118 | 0.142 | 0.291 | 0.0246 | 0.15 |
| SMN1 (survival of motor neuron 1, telomeric) | 1 | 0.0529 | 0.0888 | 0.193 | 0.00105 | 0.16 |
| CHRM1 (cholinergic receptor muscarinic 1) | 1 | 0.209 | 0.136 | 0.297 | 0.00818 | 0.209 |
| IGBP1 (immunoglobulin binding protein 1) | 1 | 0.046 | 0.236 | 0.167 | 0.0211 | 0.117 |
| CASQ2 (calsequestrin 2) | 1 | 0.0993 | 0.183 | 0.207 | 0.0107 | 0.133 |
| EIF3L (eukaryotic translation initiation factor 3 subunit L) | 1 | 0.216 | 2.74 | 0.502 | 0.075 | 0.279 |
| SNTB2 (syntrophin beta 2) | 1 | 0.125 | 0.272 | 0.355 | 0.0435 | 0.174 |
| PLA2G4A (phospholipase A2 group IVA) | 1 | 0.0752 | 0.0554 | 0.257 | 0.0189 | 0.0722 |
| KCNK15 (potassium two pore domain channel subfamily K member 15) | 1 | 0.0625 | 0.0415 | 0.346 | 0.0177 | 0.125 |
| FCRL4 (Fc receptor like 4) | 1 | 0.0751 | 0.469 | 0.323 | 0.0172 | 0.198 |
| PTGES (prostaglandin E synthase) | 1 | 0.115 | 0.294 | 0.337 | 0.0426 | 0.137 |
| ZNF471 (zinc finger protein 471) | 1 | 0.0854 | 0.128 | 0.341 | 0.0169 | 0.207 |
| DAZ1 (deleted in azoospermia 1) | 1 | 0.135 | 0.113 | 0.304 | 0.0171 | 0.3 |
| RTN4IP1 (reticulon 4 interacting protein 1) | 1 | 0.204 | 0.138 | 0.359 | 0.232 | 0.549 |
| DPY30 (dpy-30 histone methyltransferase complex regulatory subunit) | 1 | 0.0782 | 0.156 | 0.335 | 0.0324 | 0.132 |

7 entries already listed, sorted by “NDRG1 mRNA, set 1”, descending:
| gene | pool no. | BNIP3L mRNA, set 1 | NDRG1 mRNA, set 1 | BNIP3 mRNA, set 1 | ALDOC mRNA, set 1 | ACSL5 mRNA, set 1 |
| --- | --- | --- | --- | --- | --- | --- |
| LPAR6 (lysophosphatidic acid receptor 6) | 1 | 0.266 | 0.56 | 0.772 | 0.0904 | 0.322 |
| KCNIP2 (potassium voltage-gated channel interacting protein 2) | 1 | 0.0799 | 0.285 | 0.118 | 0.024 | 0.192 |
| KRT13 (keratin 13) | 1 | 0.19 | 0.276 | 0.388 | 0.0457 | 0.219 |
| NEBL (nebulette) | 1 | 0.0952 | 0.166 | 0.266 | 0.0185 | 0.0769 |
| TOR1A (torsin family 1 member A) | 1 | 0.114 | 0.124 | 0.282 | 0.0293 | 0.164 |
| IRS1 (insulin receptor substrate 1) | 1 | 0.125 | 0.0852 | 0.288 | 0.0183 | 0.359 |
| TXNRD3 (thioredoxin reductase 3) | 1 | 0.091 | 0.0758 | 0.26 | 0.00885 | 0.111 |

Additional results follow.
| gene | pool no. | BNIP3L mRNA, set 1 | NDRG1 mRNA, set 1 | BNIP3 mRNA, set 1 | ALDOC mRNA, set 1 | ACSL5 mRNA, set 1 |
| --- | --- | --- | --- | --- | --- | --- |
| CACNA1C (calcium voltage-gated channel subunit alpha1 C) | 1 | 0.111 | 0.263 | 0.408 | 0.0534 | 0.114 |
| AGPAT3 (1-acylglycerol-3-phosphate O-acyltransferase 3) | 1 | 0.202 | 0.371 | 0.269 | 0.06 | 0.421 |
| CLCN4 (Cl-/H+ antiporter 4) | 1 | 0.0546 | 1.05 | 0.213 | 0.0214 | 0.112 |
| BCHE (butyrylcholinesterase) | 1 | 0.0766 | 0.106 | 0.224 | 0.0214 | 0.1 |
| SMR3B (submaxillary gland androgen regulated protein 3B) | 1 | 0.438 | 0.772 | 0.403 | 0.0717 | 0.388 |
| ZNF432 (zinc finger protein 432) | 1 | 0.078 | 0.166 | 0.303 | 0.0398 | 0.186 |
| TSEN2 (tRNA splicing endonuclease subunit 2) | 1 | 0.114 | 0.178 | 0.277 | 0.0384 | 0.208 |
| AGPAT5 (1-acylglycerol-3-phosphate O-acyltransferase 5) | 1 | 0.211 | 0.866 | 0.242 | 0.022 | 0.631 |
| TBK1 (TANK binding kinase 1) | 1 | 0.0928 | 0.11 | 0.389 | 0.0263 | 0.409 |
| PIK3CA | 1 | 0.102 | 0.0903 | 0.176 | 0.00517 | 0.0884 |
| AQP3 (aquaporin 3 (Gill blood group)) | 1 | 0.133 | 0.198 | 0.295 | 0.0183 | 0.177 |
| TMEM156 (transmembrane protein 156) | 1 | 0.179 | 0.251 | 0.358 | 0.0201 | 0.397 |
| SIX2 (SIX homeobox 2) | 1 | 0.0849 | 0.248 | 0.339 | 0.0291 | 0.265 |
| ABCD3 (ATP binding cassette subfamily D member 3) | 1 | 0.115 | 0.033 | 0.202 | 0.0174 | 0.0645 |
| DEPDC1B (DEP domain containing 1B) | 1 | 0.0336 | 0.107 | 0.266 | 0.0186 | 0.192 |
| ICAM3 (intercellular adhesion molecule 3) | 1 | 0.098 | 0.397 | 0.226 | 0.0535 | 0.178 |
| UTP23 (UTP23 small subunit processome component) | 1 | 0.18 | 0.3 | 0.293 | 0.0754 | 0.463 |
| GUCD1 (guanylyl cyclase domain containing 1) | 1 | 0.2 | 0.302 | 0.378 | 0.0647 | 0.192 |
| UGT1A4 (UDP glucuronosyltransferase family 1 member A4) | 1 | 0.116 | 0.348 | 0.155 | 0.0344 | 0.24 |
| ADGRG5 (adhesion G protein-coupled receptor G5) | 1 | 0.0809 | 0.229 | 0.186 | 0.0133 | 0.186 |
| HLA-DPB1 (major histocompatibility complex, class II, DP beta 1) | 1 | 0.0841 | 0.137 | 0.303 | 0.0138 | 0.17 |
| TACC1 (transforming acidic coiled-coil containing protein 1) | 1 | 0.132 | 0.189 | 0.345 | 0.0253 | 0.141 |
| TJP3 (tight junction protein 3) | 1 | 0.14 | 0.168 | 0.378 | 0.0257 | 0.145 |
| TP53 (tumor protein p53) | 1 | 0.106 | 0.0945 | 0.299 | 0.0136 | 0.128 |
